The target in this assay is human Piezo1-mTurquoise2 (human) (UniProt Q92508). Kind of assay: FRET or BRET. A general note: In BRET a luciferase serves as donor, and the signal depends on an acceptor being close.

Sequences of proteins named here, by UniProt entry; tags and fusion partners are left off.
UniProt Q92508: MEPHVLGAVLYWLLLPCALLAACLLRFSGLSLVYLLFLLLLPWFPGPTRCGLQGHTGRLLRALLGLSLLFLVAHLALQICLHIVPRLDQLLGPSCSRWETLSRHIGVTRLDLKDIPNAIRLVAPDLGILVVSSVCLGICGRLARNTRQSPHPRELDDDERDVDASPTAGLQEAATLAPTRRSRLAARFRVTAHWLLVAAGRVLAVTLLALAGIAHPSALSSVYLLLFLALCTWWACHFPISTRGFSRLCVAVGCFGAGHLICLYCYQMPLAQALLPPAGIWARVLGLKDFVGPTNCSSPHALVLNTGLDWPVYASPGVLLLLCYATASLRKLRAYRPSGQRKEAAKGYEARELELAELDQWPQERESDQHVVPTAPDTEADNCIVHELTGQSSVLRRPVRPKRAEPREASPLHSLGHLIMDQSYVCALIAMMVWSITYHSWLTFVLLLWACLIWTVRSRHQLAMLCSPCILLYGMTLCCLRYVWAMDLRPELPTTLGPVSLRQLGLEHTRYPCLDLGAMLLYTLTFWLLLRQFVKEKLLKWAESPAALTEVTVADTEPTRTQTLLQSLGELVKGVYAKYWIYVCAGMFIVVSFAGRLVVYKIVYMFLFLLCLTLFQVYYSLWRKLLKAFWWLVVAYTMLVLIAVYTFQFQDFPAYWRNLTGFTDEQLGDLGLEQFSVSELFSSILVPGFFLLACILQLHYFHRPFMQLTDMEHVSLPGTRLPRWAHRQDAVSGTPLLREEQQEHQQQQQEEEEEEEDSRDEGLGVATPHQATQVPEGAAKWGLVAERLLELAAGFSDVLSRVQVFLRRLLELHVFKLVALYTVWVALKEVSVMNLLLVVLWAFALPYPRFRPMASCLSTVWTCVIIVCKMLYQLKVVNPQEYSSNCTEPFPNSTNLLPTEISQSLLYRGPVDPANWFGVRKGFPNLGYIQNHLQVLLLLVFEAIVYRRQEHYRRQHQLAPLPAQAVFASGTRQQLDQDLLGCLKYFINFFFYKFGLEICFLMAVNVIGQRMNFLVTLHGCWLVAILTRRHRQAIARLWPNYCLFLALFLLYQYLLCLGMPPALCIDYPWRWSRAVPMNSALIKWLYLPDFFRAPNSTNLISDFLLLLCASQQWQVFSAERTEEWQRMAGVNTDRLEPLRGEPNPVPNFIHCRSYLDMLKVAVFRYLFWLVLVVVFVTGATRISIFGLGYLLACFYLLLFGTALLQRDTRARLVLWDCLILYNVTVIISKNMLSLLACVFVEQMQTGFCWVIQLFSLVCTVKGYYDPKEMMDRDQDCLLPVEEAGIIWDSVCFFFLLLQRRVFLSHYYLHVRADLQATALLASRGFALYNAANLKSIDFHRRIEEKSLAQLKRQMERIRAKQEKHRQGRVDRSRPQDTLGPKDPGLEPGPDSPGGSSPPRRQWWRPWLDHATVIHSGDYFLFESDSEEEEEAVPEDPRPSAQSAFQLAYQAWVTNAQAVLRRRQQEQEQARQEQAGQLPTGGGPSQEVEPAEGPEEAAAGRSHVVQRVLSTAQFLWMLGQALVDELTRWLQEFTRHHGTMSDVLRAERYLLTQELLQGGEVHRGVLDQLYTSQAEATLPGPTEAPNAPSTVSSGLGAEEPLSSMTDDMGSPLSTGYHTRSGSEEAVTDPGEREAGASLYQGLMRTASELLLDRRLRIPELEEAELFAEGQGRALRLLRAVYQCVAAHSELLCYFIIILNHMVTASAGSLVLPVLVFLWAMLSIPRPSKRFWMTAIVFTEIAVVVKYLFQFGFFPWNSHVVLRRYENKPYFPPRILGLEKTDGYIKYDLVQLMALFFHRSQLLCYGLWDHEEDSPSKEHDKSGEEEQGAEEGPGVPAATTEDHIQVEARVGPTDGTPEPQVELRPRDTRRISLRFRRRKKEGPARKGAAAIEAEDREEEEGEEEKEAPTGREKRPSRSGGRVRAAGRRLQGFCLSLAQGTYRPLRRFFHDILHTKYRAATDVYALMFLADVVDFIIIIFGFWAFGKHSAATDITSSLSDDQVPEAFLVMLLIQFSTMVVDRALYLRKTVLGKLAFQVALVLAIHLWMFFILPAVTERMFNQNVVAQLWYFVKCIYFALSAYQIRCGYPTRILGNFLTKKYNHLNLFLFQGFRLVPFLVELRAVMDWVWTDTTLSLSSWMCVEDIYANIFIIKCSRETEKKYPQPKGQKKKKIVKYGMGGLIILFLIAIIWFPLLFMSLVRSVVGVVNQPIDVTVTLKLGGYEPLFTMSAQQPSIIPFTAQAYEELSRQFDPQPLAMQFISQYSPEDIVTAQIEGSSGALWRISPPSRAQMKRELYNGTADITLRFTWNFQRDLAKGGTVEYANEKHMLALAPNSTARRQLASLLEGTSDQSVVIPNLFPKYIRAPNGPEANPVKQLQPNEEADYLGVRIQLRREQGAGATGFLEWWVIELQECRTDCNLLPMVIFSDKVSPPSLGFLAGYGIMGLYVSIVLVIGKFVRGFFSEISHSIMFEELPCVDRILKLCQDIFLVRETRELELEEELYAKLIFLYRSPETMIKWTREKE

Results are given in words; binding and its absence hold for the method and conditions named. Binding seen in cells or lysates may run through a third protein. Some entries that bind do so weakly or less than the wild type.

B1: VE-cadherin-mVenus (protein, UniProt P33151 48-784)
chain: DWIWNQMHIDEEKNTSLPHHVGKIKSSVSRKNAKYLLKGEYVGKVFRVDAETGDVFAIERLDRENISEYHLTAVIVDKDTGENLETPSSFTIKVHDVNDNWPVFTHRLFNASVPESSAVGTSVISVTAVDADDPTVGDHASVMYQILKGKEYFAIDNSGRIITITKSLDREKQARYEIVVEARDAQGLRGDSGTATVLVTLQDINDNFPFFTQTKYTFVVPEDTRVGTSVGSLFVEDPDEPQNRMTKYSILRGDYQDAFTIETNPAHNEGIIKPMKPLDYEYIQQYSFIVEATDPTIDLRYMSPPAGNRAQVIINITDVDEPPIFQQPFYHFQLKENQKKPLIGTVLAMDPDAARHSIGYSIRRTSDKGQFFRVTKKGDIYNEKELDREVYPWYNLTVEAKELDSTGTPTGKESIVQVHIEVLDENDNAPEFAKPYQPKVCENAVHGQLVLQISAIDKDITPRNVKFKFILNTENNFTLTDNHDNTANITVKYGQFDREHTKVHFLPVVISDNGMPSRTGTSTLTVAVCKCNEQGEFTFCEDMAAQVGVSIQAVVAILLCILTITVITLLIFLRRRLRKQARAHGKSVPEIHEQLVTYDEEGGGEMDTTSYDVSVLNSVRRGGAKPPRPALDARPSLYAQVQKPPRHAPGAHGGPGEMAAMIEVKKDEADHDGDGPPYDTLHIYGYEGSESIAESLSSLGTDSSDSDVDYDFLNDWGPRFKMLAELYGSDPREELLY
As to B1, the binding entry is given as “binds”.
